Measured values as given in patent publication EP0241232A1, “Isoxazolylethanol derivatives” (SHIONOGI SEIYAKU KABUSHIKI KAISHA, priority 1986, dated 1987).
The name of at least one read-out is uncertain.

System: Rhizoctonia solani
Experiment: Control of cucumber damping-off by soil drench
Format: in vivo
Details: 30 ml per cup, judged 15 days after inoculation
Description: Damping-off was observed 15 days after sowing, and disease degree and control effect were obtained from the following equations. [formula] [formula] where diseased seedlings included damping-off and unemerged'seeds due to infection. For the foliar diseases, disease development was observed 10 - 14 days after inoculation of spores, and control effect was obtained by the following index.
The test compound was dissolved in a small amount of acetone and suspended in demineralized distilled water containing a spreader, to a concentration of 125 ppm and 31 ppm. The soil sterilized by an autoclave was put into paper cups (diameter : 7.5 cm; depth : 6 cm) and cucumber seeds (c.v. : Matsukaze) were sown in the cups (10 seeds/pot). Then the soil surface was covered with the following soil containing pathogen. And then 30 ml of the formation of the test compound was applied to the soil in the cup.
Rhizoctonia solani incubated in a bran medium at 28 °C for 5 days was put into sterile soil and cultured for 24 hr. The inoculated soil was diluted with sterile soil to about 4 times volume. The soil surface in the cups containing cucumber seeds was covered with the soil containing Rhizoctonia solani.
Control effect was judged 15 days after inoculation and control percent was obtained as described in Experiment 3.

| SMILES | Control (soil drench 31 ppm) [%] | Control (soil drench 125 ppm) [%] |
| --- | --- | --- |
| Cc1cc(C(O)(Cn2cncn2)c2ccc(F)cc2F)no1 (centres unmarked) [Ia - 8] | 94 | 100 |
| Cc1cc(C(O)(Cn2cncn2)c2ccc(Cl)cc2Cl)no1 (centres unmarked) [Ia - 7] | 96 | 100 |
| OC(Cn1cncn1)(c1ccc(F)cc1)c1ccon1 (stereo not drawn) [Ia - 1, 1-(4-Fluorophenyl)-1-(isoxazol-3-yl)-2-(1H-1,2,4-triazol-l-yl)ethanol] | 97 | 100 |
| Cc1cc(C(O)(Cn2cncn2)c2ccc(Cl)cc2)no1 (centres unmarked) [Ia - 5] | 91 | 100 |
